Laboratory results taken from patent US20210379040A1, “COMBINATION TREATMENT OF LIVER DISORDERS” (Terns Pharmaceuticals, Inc., priority 2020, published 2021).

Tested on: liver gene expression (lipid metabolism and fatty acid transport genes)
Assay: Rat CDHFD+NaNO2 NASH model: liver whole transcriptome RNAseq (DEGs)
Assay type: in vivo, male Wistar rats
Settings: CDHFD+NaNO2 rats, 8 weeks; Compound 1 3 mg/kg, Compound 2 25 mg/kg; vs vehicle NASH control; adjusted p-value <0.01, fold-change ≥1.5-fold
Protocol: Animal handling: After arrival, the rats were left for a 2-week acclimation period, during which they were accustomed to the animal facility staff and trained on the procedure of oral gavage. […] Rats were then treated with test compounds for an additional 8 weeks while on CDHFD. […] Final Sacrifice: Half of the animals of each treatment group were terminated on day 84. The other half of the animals in each group were terminated on the following day, day 85. On the day of sacrifice the animals were fasted for 2 hours and received a final treatment with the respective test substance. After the final compound treatment, the animals had no more access to food until sacrifice. At 4 hours after the last administration all animals were sacrificed and livers were sampled for further analysis. Sampling and analysis: Small liver pieces were harvested into RNAlater (Thermo Fisher Scientific Dreieich Germany) and stored at −20° C. prior to RNA sequencing (RNAseq) at MedGenome Inc. RNAseq analysis was performed on liver tissue by Illumina sequencing using standard methodologies. Briefly, RNAseq libraries (n=5 per group) were generated using Illumina Truseq stranded mRNA kits and sequencing was performed on a NovaSeq 6000 sequencer. Alignment was performed using STAR (v2.7.3a) aligner and reads mapping to ribosomal and mitochondrial genome were removed prior to alignment. Raw read counts were estimated using HTSeq (v0.11.1) and normalized using DESeq2 (v2.22.2). Differentially expressed genes (DEGs) were determined using DESeq2 (R Bioconductor package). RESULTS: The choline-deficient, high-fat diet (CDHFD) is commonly used to induce a NASH-like phenotype in rodent species. In addition, induction of liver fibrosis by intraperitoneal (IP) injections of sodium nitrite (NaNO2) in CDHFD rats can be used to model advanced NASH disease. […] In this model, male Wistar rats were fed a CDHFD for 4 weeks to induce disease prior to daily oral drug and triweekly IP NaNO2 treatment.

Structure (SMILES)	Down DEGs	Up DEGs	Total DEGs
COC1CCN(c2ncc(OC/C(=C/F)CN)cn2)CC1 [Compound 2]	641	206	–
Cn1cc(C(=O)O)c2ccc(N3CCC(OCc4c(-c5c(Cl)cccc5Cl)noc4C4CC4)CC3)cc21 [Compound 1]	118	191	309
